Source: PubChem BioAssay AID1159584 (Peter MacCallum Cancer Centre, 2016)
The deposit covers about 18,000 reagents; below is an unselected part. Reagent sequences are not shown. Not given: the amount of reagent, the time to read-out.

Purpose: 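Genes that CDH1-null MCF10A cells selectively depend on to survive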 (primary screen)
Cells: human MCF10A breast epithelial cells, parental and CDH1-null
Knock-down reagent: siRNA against human genes
Measurement: 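Cell viability by CellTiter-Glo ATP luminescence, each line scaled to the mean of mock wells across plates, then CDH1-null over parental ratio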
Scale: CDH1-null / parental viability ratio: higher = CDH1-null cells survive relatively better than parental; CDH1-null viability vs mock: higher = more viable CDH1-null cells; parental viability vs mock: higher = more viable parental cells

| target | CDH1-null / parental viability ratio | CDH1-null viability vs mock (fraction of mock) | parental viability vs mock (fraction of mock) |
| --- | --- | --- | --- |
| BNIP2 | 0.98 | 0.8 | 0.82 |
| ARL14 | 1.88 | 0.45 | 0.24 |
| HLTF | 0.82 | 0.51 | 0.62 |
| NEK9 | 0.99 | 0.74 | 0.75 |
| TCEAL9 | 0.88 | 1.07 | 1.22 |
| DEFB112 | 0.92 | 0.47 | 0.51 |
| ADAM8 | 1.36 | 0.76 | 0.56 |
| FZD5 | 0.86 | 0.84 | 0.98 |
| AJAP1 | 1.2 | 0.91 | 0.76 |
| NFATC1 | 0.88 | 0.69 | 0.78 |
| PDLIM4 | 1.21 | 0.82 | 0.68 |
| CPZ | 1.15 | 0.55 | 0.48 |
| CAT | 0.96 | 0.82 | 0.85 |
| OOEP | 1.07 | 1.04 | 0.97 |
| NPVF | 0.86 | 0.81 | 0.94 |
| STRBP | 1.17 | 0.96 | 0.82 |
| NFAM1 | 1.12 | 1.01 | 0.9 |
| FAM193A | 1.13 | 0.8 | 0.71 |
| CD58 | 0.86 | 0.67 | 0.78 |
| P2RY4 | 0.88 | 0.76 | 0.86 |
| GJB4 | 0.99 | 1.16 | 1.17 |
| H3C8 | 0.93 | 0.78 | 0.84 |
| SNX25 | 0.97 | 0.84 | 0.87 |
| MAST1 | 0.82 | 0.7 | 0.85 |
| ASPNAT | 1.24 | 0.82 | 0.66 |
| LTF | 1.31 | 0.92 | 0.7 |
| USP25 | 1.22 | 0.78 | 0.64 |
| TRIM15 | 1.03 | 0.96 | 0.93 |
| ZNF81 | 0.9 | 0.84 | 0.93 |
| PAFAH1B2 | 0.94 | 0.62 | 0.66 |
| DNAH1 | 1.16 | 0.92 | 0.79 |
| CNNM4 | 0.99 | 1.09 | 1.1 |
| SMAP1 | 0.9 | 0.92 | 1.02 |
| CLIP3 | 1.03 | 0.76 | 0.74 |
| SIT1 | 0.9 | 0.82 | 0.91 |
| CD70 | 0.99 | 0.66 | 0.67 |
| MFGE8 | 1.18 | 0.86 | 0.73 |
| PPP1R13L | 1.34 | 0.78 | 0.58 |
| OCIAD2 | 1.01 | 0.95 | 0.94 |
| MKRN2 | 0.95 | 0.8 | 0.84 |
| TRIM9 | 0.99 | 0.74 | 0.75 |
| ADCY9 | 0.95 | 1.04 | 1.09 |
| COMMD8 | 0.86 | 0.6 | 0.7 |
| ACP3 | 1.31 | 0.84 | 0.64 |
| PCSK2 | 1.33 | 0.6 | 0.45 |
| ASB7 | 1.03 | 0.98 | 0.95 |
| RAB11FIP1 | 0.94 | 0.62 | 0.66 |
| TMSB4Y | 1.21 | 0.97 | 0.8 |
| PARD6B | 0.88 | 0.81 | 0.92 |
| MRPL32 | 0.58 | 0.54 | 0.93 |
| ARSG | 0.98 | 0.4 | 0.41 |
| JMJD6 | 1.4 | 0.74 | 0.53 |
| BPNT1 | 1.19 | 0.89 | 0.75 |
| OR5M1 | 1.15 | 0.77 | 0.67 |
| IL17RA | 0.63 | 0.52 | 0.82 |
| ZNF713 | 1.29 | 0.62 | 0.48 |
| L3MBTL4 | 1.16 | 1.02 | 0.88 |
| JMJD7-PLA2G4B | 1.03 | 0.69 | 0.67 |
| PNPT1 | 0.84 | 0.68 | 0.81 |
| ATG4C | 0.96 | 0.66 | 0.69 |
| REC114 | 1.11 | 1.02 | 0.92 |
| NDUFB6 | 0.93 | 0.53 | 0.57 |
| SLC11A1 | 1.02 | 0.88 | 0.86 |
| HS6ST3 | 0.93 | 1.01 | 1.09 |
| ACOT2 | 0.84 | 0.67 | 0.8 |
| DIRAS3 | 1 | 0.92 | 0.92 |
| MSRB1 | 1.11 | 0.62 | 0.56 |
| JDP2 | 1.05 | 0.69 | 0.66 |
| CDH24 | 1.26 | 0.92 | 0.73 |
| DOHH | 1.12 | 1.02 | 0.91 |
| PCDHGC5 | 0.95 | 0.59 | 0.62 |
| FOXE3 | 0.93 | 0.78 | 0.84 |
| CSRP3 | 0.82 | 0.62 | 0.76 |
| CDC50B | 1.02 | 0.88 | 0.86 |
| PIAS4 | 1 | 0.82 | 0.82 |
| BTF3 | 0.77 | 0.72 | 0.94 |
| NET1 | 1.04 | 0.94 | 0.9 |
| NRSN1 | 0.94 | 0.96 | 1.02 |
| CSGALNACT2 | 1.1 | 0.86 | 0.78 |
| TEDDM1 | 1.1 | 0.76 | 0.69 |
| L1CAM | 0.75 | 0.4 | 0.53 |
| GRIA4 | 1.45 | 1.32 | 0.91 |
| KGD4 | 1.02 | 0.88 | 0.86 |
| TSN | 1.15 | 1.24 | 1.08 |
| BPIFB2 | 1.1 | 0.79 | 0.72 |
| C1QTNF4 | 1.43 | 0.8 | 0.56 |
| RCC1L | 0.76 | 0.6 | 0.79 |
